According to the supplement of paper PMC8551327:
Where a name gives a salt, the structure may show the parent alone. Some of the results follow. Cut-off read from the data, not from the text of the source: active = 1.25 or more and inactive = the rest. Most values come without repeats; read them as rough.

Tested on: Kcc2-LUC knock-in mouse primary cortical neurons (Kcc2 promoter reporter)
Assay: Kcc2 promoter-driven luciferase activity relative to vehicle control (fold of vehicle (ratio)); higher = stronger Kcc2 promoter activation (Kcc2 expression enhancer)
Conditions: 100 nM; 48 h

Structure (SMILES) | Kcc2 promoter-driven luciferase activity
COc1ccc(/C=C2\N=C(c3ccccc3)OC2=O)c(OCc2ccccc2)c1 | inactive: 0.71
O=C1C=C(Nc2cccnc2)c2ccccc2C1=O [4-(pyridin-3-ylamino)naphthalene-1,2-dione] | inactive: 0.33
O=C1c2ccccc2C(=O)c2c(O)c(NCCNCCO)cc(O)c21 | inactive: 0.92
O=C(CC1(O)C(=O)Nc2c(Cl)cc(Cl)cc21)c1cccc([N+](=O)[O-])c1 (centres undefined) | inactive: 0.85
Cc1ccc(NC(=O)c2cccc([N+](=O)[O-])c2O)c(C)c1 [n-(2,4-Dimethylphenyl)-2-hydroxy-3-nitrobenzamide] | active: 1.84
CC1=Nc2ccccc2/C1=C\c1c(C)[nH]c2ccccc12 [(3E)-2-methyl-3-[(2-methyl-1H-indol-3-yl)methylidene]indole] | inactive: 0.69
CN1CCN(CCSC2Cc3cc(Cl)ccc3Sc3ccccc32)CC1 (centres undefined) | inactive: 1.13
COc1cc(NC(C)CCCN)c2ncccc2c1 (centres undefined) | inactive: 0.41
COc1ccc(/C=C2/C(=O)N(C(=O)c3ccccc3O)N=C2C)cc1 | active: 1.25
N#Cc1ccccc1NC(=O)C(=O)C(C(=O)c1ccccc1F)C1OC(=O)c2ccccc21 (centres undefined) | inactive: 0.82
CCCn1c(=O)c2ccccc2[n+]2c(-c3ccc([N+](=O)[O-])cc3)csc12 | inactive: 0.79
COC1=C(N)C(=O)c2nc(-c3nc(C(=O)O)c(C)c(-c4ccc(OC)c(OC)c4O)c3N)ccc2C1=O [Streptonigrin; Bruneomycin] | inactive: 0.786
CC(=O)NC1C(OCc2ccccc2)OC(CO)C(O)C1OC(C)C(=O)NC(C(=O)NC(CCC(=O)NCCCCNc1c2ccccc2nc2cccc([N+](=O)[O-])c12)C(N)=O)C(C)C (centres undefined) | inactive: 1.18
COc1ccc(Cc2nc3ccccc3s2)cc1OC [2-[(3,4-dimethoxyphenyl)methyl]-1,3-benzothiazole] | inactive: 0.45
COC(=O)[C@]1(C)CCC[C@]2(C)C3=CC(=O)[C@@]4(C(C)C)O[C@H]4[C@]3(O)CC[C@@H]12 [Triptolide Analog] | inactive: 0.983
O=C1C(=O)c2ccccc2C(O)=C1CCCc1ccc(Oc2ccccc2)cc1 [4-hydroxy-3-[3-(4-phenoxyphenyl)propyl]naphthalene-1,2-dione] | inactive: 0.72
Oc1[nH]c2ccccc2c1N=Nc1nc(-c2ccc(Br)cc2)cs1 | inactive: 0.85
COCCOC(=O)C1=C(O)c2ccccc2S(=O)(=O)N1C | inactive: 1.09
CC1(C)CCC2=C(O1)c1ccccc1C(=O)C2=O [Lapachone] | inactive: 1.11
COc1cc(C)c2c(c1C=O)Oc1c(c(C)c(O)c3c1C(O)OC3=O)OC2=O (centres undefined) [Stictic Acid] | inactive: 0.56

Molecules shown so far containing an NH in an aromatic ring, in the order listed:
Structure (SMILES) | Kcc2 promoter-driven luciferase activity
CC1=Nc2ccccc2/C1=C\c1c(C)[nH]c2ccccc12 [(3E)-2-methyl-3-[(2-methyl-1H-indol-3-yl)methylidene]indole] | inactive: 0.69
Oc1[nH]c2ccccc2c1N=Nc1nc(-c2ccc(Br)cc2)cs1 | inactive: 0.85

(list continues)

Structure (SMILES) | Kcc2 promoter-driven luciferase activity
O=S(=O)(O)c1cc(N=Nc2cc(S(=O)(=O)O)c3cccnc3c2O)ccc1/C=C/c1ccc(N=Nc2cc(S(=O)(=O)O)c3cccnc3c2O)cc1S(=O)(=O)O [Quinobene] | inactive: 1.15
Cc1c2ccncc2cc2c1[nH]c1ccccc12 [5-Methyl-6H-pyrido[4,3-b]carbazole] | inactive: 1.07
COC(=O)[C@@H]1[C@H]2C[C@@H]3c4[nH]c5ccccc5c4CCN3C[C@@H]2CC[C@@H]1O [Pseudoyohimbine] | inactive: 0.908
O=C1C=CN(C2OC(CO)C(O)C2O)C(=O)C1 (centres undefined) [DeazaUrd] | active: 1.25
O=C1/C(=C\c2ccc(Cl)c(Cl)c2)CN(C(=O)CCN2CCOCC2)C/C1=C\c1ccc(Cl)c(Cl)c1 | inactive: 1.17
O=C1c2cccc(O)c2C(=O)c2c(O)cccc21 [Danthron] | inactive: 0.93
CC1=C2C(=CO[C@H](C)[C@H]2C)C(=O)C(C(=O)O)=C1O [Citrinin] | inactive: 0.85
OCCNCCN1CCN(CCCN2c3ccccc3Sc3ccc(C(F)(F)F)cc32)CC1 [Ethanol, trihydrochloride] | inactive: 1.02
Fc1cccc(Cl)c1C1SCc2nc3ccccc3n21 (centres undefined) [1-[2-Chloro-6-fluorophenyl]-3H-thiazolo[3,4-a]benzimidazole] | inactive: 0.99
Nc1ncnc2c1ncn2[C@@H]1O[C@H](CO)C[C@H]1O [9-(.beta.-D-3'-Deoxyribofuranosyl)adenine] | inactive: 1.16
CCOC(=O)C1=C(O)CSC1=Nc1ccc(N=C2SCC(O)=C2C(=O)OCC)cc1 | inactive: 0.77
COc1cc2c(c(OC)c1OC)-c1ccc(OC)c(=O)cc1[C@@H](NC(=O)c1ccccc1)CC2 [N-Benzoyl-deacetylcolchicine] | inactive: 0.37
Oc1ccc2ccccc2c1N=Nc1cccc2ccccc12 [1-(1-Naphthylazo)-2-naphthol] | inactive: 1
O=[N+]([O-])c1cc(C(F)(F)F)cc([N+](=O)[O-])c1CCl [2-(chloromethyl)-1,3-dinitro-5-(trifluoromethyl)benzene] | inactive: 1.03
C=C1C(=O)OC2C1CC1OC2C(C)CCC/C(C)=C\CCC1(C)O (centres undefined) [Eunicin] | active: 1.33
O=C(CC1(O)C(=O)Nc2c(Cl)cc(Cl)cc21)c1ccc([N+](=O)[O-])cc1 (centres undefined) | inactive: 0.43
CO[C@H]1C[C@@H]2CC[C@@H](C)[C@@](O)(O2)C(=O)C(=O)N2CCCC[C@H]2C(=O)O[C@H]([C@H](C)C[C@@H]2CC[C@@H](O)[C@H](OC)C2)CC(=O)[C@H](C)/C=C(\C)[C@@H](O)[C@@H](OC)C(=O)[C@H](C)C[C@H](C)/C=C/C=C/C=C/1C [Sirolimus] | inactive: 0.9
CC(=O)C1=C(O)C=C2Oc3c(C(C)=O)c(O)c(C)c(O)c3C2(C)C1=O (stereo in doubt) [Usnic Acid] | inactive: 0.92
CCOC(=O)CNC(=O)NC12CC3CC(CC(C3)C1)C2 [ethyl 2-(1-adamantylcarbamoylamino)acetate] | inactive: 1.13
